# Reference: PubChem BioAssay AID504467 (National Center for Advancing Translational Sciences (NCATS), 2011)
# About 7,700 (2.3%) of roughly 330,000 compounds were called active. The inconclusive results got no clear call from the source; some entries with a clear call stand among them for comparison. Calls follow the shape of the dose curve; as a rule, active = well fitted inhibition curve with a large enough effect; inconclusive = small, poorly fitted or top-dose-only effect, or effect the other way; inactive = flat fitted curve, though single readings scatter. Where the call is inconclusive, the potency comes from a doubtful curve fit.
# Test: qHTS screen for small molecules that inhibit ELG1-dependent DNA repair in human embryonic kidney (HEK293T) cells expressing luciferase-tagged ELG1; also: nearly all actives have a fitted effect of over 55% in size
# Settings: HEK293T ELG1-luciferase reporter, luminescence, 16 h, DNA damage induced by 5-fluorouridine; activity change, negative = inhibition: at 46.1 µM (top of the series)
# Summary of the method: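 Reporter activity after DNA damage by 5-fluorouridine is monitored. Compound-treated cells incubate 16 hr at 37 °C, then ONE-Glo is added for 30 min before luminescence reading.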
# % is scaled to controls: 0 for no effect and ±100 for the full control effect; potency is read from the fitted curve at half-maximal effect.
Compound,"activity change, negative = inhibition",Potency
COc1ccc(CCN(C)C2CCCN(C(=O)CCC(F)(F)F)C2)cc1OC (stereo unspecified),inactive: 0.794%,
O=C(NCCC1=CCCCC1)C1COc2ccccc2O1 (stereo unspecified),,"inconclusive: 20.6 µM [activator, partial curve]"
Cn1c(=O)c2c(nc(CN3CCc4ccccc4C3)n2Cc2ccccc2)n(C)c1=O,,active: 16.4 µM
CN(CCOc1ccccc1)CC(=O)Nc1cc([N+](=O)[O-])ccc1Cl,,"inconclusive: 25.9 µM [inhibitor, single point]"
Oc1ccc(N=Nc2ccc3ccccc3c2)cc1,,"inconclusive: 14.1 µM [activator, partial curve]"
N#Cc1nc(-c2ccccc2F)oc1NCc1cccc2c1OCO2,,"inconclusive: 32.6 µM [activator, partial curve, poor fit]"
N#CC(C#N)=C1C=C2C=C(N3CCCCC3)CCC2CC1 (stereo unspecified),,"inconclusive: 0.517 µM [inhibitor, partial curve, poor fit]"
Brc1cc2c(cc1CN1CCc3ccccc3C1)OCO2,inactive: -3.72%,
CSCC[C@H](NC(=O)OC(C)(C)C)c1nnc(SCc2ccccc2)o1,,"inconclusive: 9.2 µM [inhibitor, partial curve, poor fit]"
O=C(Nc1nnc(C2CC2)s1)c1cccc(S(=O)(=O)N2CCc3ccccc32)c1,,"inconclusive: 23.1 µM [inhibitor, partial curve, poor fit]"
CC(C)CCN1C(=O)c2ccc(C(=O)Nc3ccccn3)cc2C1=O,inactive: -8.17%,
COC(=O)Cc1cc(=O)oc2cc(OC)ccc12,,"inconclusive: 23.1 µM [activator, single point]"
N#Cc1sc2nc3c(cc2c1N)CCCC3,,"inconclusive: 13 µM [activator, partial curve]"
COc1ccccc1/C=C(/NC(=O)c1ccc(Cl)cc1Cl)C(=O)O,inactive: -3.73%,
COc1ccc(/C=C2/N=C(c3cccs3)OC2=O)cc1OC(C)C,inactive: -11.1%,
Cc1cccc(N2CCN(C(=O)CCn3c(=O)[nH]c4ccsc4c3=O)CC2C)c1 (stereo unspecified),,"inconclusive: 20.6 µM [inhibitor, single point]"
Cn1c(=O)c2c(nc(N3CCN(Cc4ccccc4)CC3)n2CCSc2ncccn2)n(C)c1=O,,active: 5.17 µM
NC(=O)Nc1ccc2c(c1)OCCO2,,"inconclusive: 16.4 µM [activator, partial curve]"
CN1C(=O)/C(=C/C=C2/CCCN2C)N(C)C1=S,,"inconclusive: 20.6 µM [activator, partial curve]"
O=C(NCCN1CCOCC1)c1cc(-c2ccc(F)cc2)nc2ccccc12,inactive: 10.6%,
CCOC(=O)C1(CCOc2ccccc2)CCN(Cc2nccn2CC)CC1,,"inconclusive: 23.1 µM [inhibitor, partial curve, poor fit]"
Cc1ccc2occ(/C=N/NC(=O)c3ccc(Cl)cc3)c(=O)c2c1,,"inconclusive: 20.6 µM [inhibitor, single point]"
CCCc1cnc(N2CCN(C(=O)c3ccc(OC)cc3)CC2)nc1,inactive: -26.1%,

Compound,"activity change, negative = inhibition",Potency
O=C(NCCc1ccccc1F)c1ccc2c(c1)OCCO2,,"inconclusive: 0.0651 µM [activator, full curve, poor fit]"
O=C1CC(N2CCN(S(=O)(=O)c3ccc(Cl)cc3)CC2)C(=O)N1CCc1ccccc1 (stereo unspecified),,"inconclusive: 6.51 µM [inhibitor, partial curve, poor fit]"
CCSc1n[nH]c2nc3c(c(=O)n12)C1(CCCCC1)Cc1ccccc1-3,inactive: 0%,
N#C/C(=C\C=C\c1ccccc1)C(=O)NCc1cccnc1,,"inconclusive: 29.1 µM [inhibitor, partial curve, poor fit]"
CN(CC(=O)Nc1ccc(F)c(F)c1F)C(=O)C1COc2ccccc2O1 (stereo unspecified),inactive: 8.68%,
COc1cccc(CNC(=O)CN(c2ccc(C(C)C)cc2)S(=O)(=O)c2c(C)noc2C)c1,inactive: 12.1%,
O=C(NC(=S)Nc1nc(-c2ccc(Br)cc2)cs1)c1ccco1,inactive: -4.65%,
CC(C)(C)NC(=O)Cn1nnc(-c2ccccc2Cl)n1,,"inconclusive: 14.6 µM [activator, partial curve]"
CC1CCCN(c2c([N+](=O)[O-])cc(C(=O)O)cc2[N+](=O)[O-])C1 (stereo unspecified),,"inconclusive: 32.6 µM [inhibitor, single point]"
COc1cc(C(=O)Nc2ccc(S(=O)(=O)NC(C)C)cc2)cc(OC)c1OC,inactive: 15%,
CC(=O)c1sc2nc(CSc3nnnn3-c3ccccc3)[nH]c(=O)c2c1C,inactive: -9.33%,
Cc1ccc(S(=O)(=O)N2CCOCC2)cc1C(=O)Nc1nc(-c2ccccn2)cs1,,"inconclusive: 7.3 µM [inhibitor, partial curve]"
CC(=O)Nc1cccc(NC(=O)C(=O)NCC(c2ccco2)N2CCc3ccccc3C2)c1 (stereo unspecified),inactive: -7.59%,
C/C(CC(=O)C(F)(F)F)=N\NC(=O)/C(C#N)=C/N(C)C,inactive: -4.16%,
CCN(CC)C(=O)C1CCCN(c2ccc([N+](=O)[O-])cc2/C=N/NC(=O)c2ccccc2)C1 (stereo unspecified),,"inconclusive: 23.1 µM [inhibitor, partial curve, poor fit]"
CCN1CCN(C(=O)/C=C/c2ccc(C)o2)CC1,,"inconclusive: 13 µM [activator, single point]"
CCC(=O)N1c2ccccc2[C@@H](N(C(C)=O)c2ccccc2)C[C@H]1C,,"inconclusive: 9.2 µM [activator, partial curve]"
Cc1ccc(C2=NC3(CCCC3)N=C2SCC(=O)Nc2ccc3c(c2)OCCO3)cc1,,"inconclusive: 29.1 µM [inhibitor, single point]"
CC(=O)N1c2ccc(S(=O)(=O)N3CCCC(C(=O)Nc4ccc(F)cc4)C3)cc2CC1C (stereo unspecified),,"inconclusive: 20.6 µM [inhibitor, single point]"
COc1ccc(-c2[nH]c(-c3cccc(OC)c3)nc2SCC(=O)NC2CCCC2)cc1,,"inconclusive: 29.1 µM [inhibitor, single point]"
CC1(C)OC2OC(C(=O)N/N=C/c3ccccc3F)C3OC(C)(C)OC3C2O1 (stereo unspecified),inactive: 2.21%,
CC(NC(=S)Nc1ccc(Cl)cc1Cl)C(c1cccs1)N1CCCC1 (stereo unspecified),inactive: -11.1%,
COC(=O)c1cccc(NC(=O)/C=C/c2cccc([N+](=O)[O-])c2)c1,,"inconclusive: 23.1 µM [inhibitor, single point]"

# Molecules listed so far that have a tert-butyl group:
Compound,"activity change, negative = inhibition",Potency
CSCC[C@H](NC(=O)OC(C)(C)C)c1nnc(SCc2ccccc2)o1,,"inconclusive: 9.2 µM [inhibitor, partial curve, poor fit]"
CC(C)(C)NC(=O)Cn1nnc(-c2ccccc2Cl)n1,,"inconclusive: 14.6 µM [activator, partial curve]"
